About 2,100 (0.66%) of roughly 320,000 compounds were called active. The inconclusive results got no clear call from the source; some entries with a clear call stand among them for comparison. Calls come from the whole dose curve; as a rule, active = well fitted inhibition curve with a large enough effect in the signal ratio, with a control signal flat (not every such curve was filed as active); inconclusive = small, poorly fitted or top-dose-only effect, or effect the other way, or a change in a side signal; inactive = flat fitted curve, though single readings scatter; the % refers to the signal ratio. A potency beside an inconclusive call is a rough fit, not a confirmed value.
Test: qHTS Assay for Lipid Storage Modulators in Drosophila S3 Cells
Conditions: BODIPY lipid droplet fluorescence, 18-24 h, cells fed with added oleic acid; lipid storage change, negative = inhibition: at 46.1 µM (top of the series) unless noted
Method in brief: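 Drosophila S3 cells got compounds at several concentrations plus oleic acid (400 uM solution). Laser-scanning cytometry with 488 nm excitation read lipid droplets at 500-530 nm and cells at 575-640 nm. Percent activity was relative to 20 uM Triacsin C.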
% is set by controls: 0 for no effect and ±100 for the full control effect; potency is the fitted concentration of half-maximal effect.

SMILES | lipid storage change, negative = inhibition | outcome | Potency
CCc1nc(NCCc2ccccn2)c2nnn(Cc3ccccc3F)c2n1 | inconclusive: -12.4% |  | 
Cc1[nH]c2ccccc2c1C(=O)C(=O)N1CCN(C(=O)c2ccco2)CC1 |  | inactive [at 46.1 µM] | 
CC(=O)Nc1ccc(S(=O)(=O)Nc2cc(C)c(-n3nc4ccccc4n3)cc2O)cc1 | inconclusive: 128% |  | 
CSCC[C@H](NC(=O)Nc1ccccc1C)C(=O)O | inconclusive: 16% |  | 
CCCCOc1ccc(C(=O)NCC(=O)NC2CCC(C)CC2)cc1 (configuration not stated) | inconclusive |  | 
O=C(O)CCC(=O)Nc1ccc(OCC2CCCO2)cc1 (configuration not stated) | inactive: -2.25% |  | 
Cc1c(Cl)ccc(S(=O)(=O)NCCCn2ccnc2)c1Cl | inconclusive: -189% |  | 
CCOC(=O)C1=NN(c2ccc(Cl)cc2)C(=O)C1 | inconclusive: -17.8% |  | 
COc1cccc(C(C(=O)NC2CCCC2)N(C(=O)c2ccco2)c2ccc(C(C)=O)cc2)c1OC (configuration not stated) | inconclusive: 106% |  | 
CC(C)NC[C@@H](O)COc1cccc2ccccc12 | inconclusive: -29.4% |  | 
COc1cc(NS(=O)(=O)c2ccc(NC(=O)c3ccc(S(=O)(=O)N4CCCCC4)cc3)cc2)ncn1 | inconclusive: -4.14% |  | 
Oc1ccc(N2CCN(c3ccnc4cc(Cl)ccc34)CC2)cc1 | inconclusive: -5.07% |  | 
CN(C)CCCNc1ncnc2oc(-c3ccccc3)c(-c3ccccc3)c12 |  |  | inconclusive: 29.1 µM [falling, single point]
COc1cccc(C(=O)Nc2ccc(C(F)(F)F)n(C)c2=O)c1 | inconclusive: 19.1% |  | 
CCCN1C2CCCC1CC(NC(=O)c1ccc(Br)cc1)C2 (configuration not stated) |  |  | inconclusive: 8.2 µM [falling, partial curve, poor fit]
COc1ccc(NC(=O)c2cnc(SC)n2-c2ccc(F)cc2)c(OC)c1 |  |  | inconclusive: 0.103 µM [activator, single point]
CCCCn1c(SCC(=O)Nc2nnc(CC)s2)nc2c1c(=O)n(C)c(=O)n2C | inconclusive: 12.2% |  | 
O=C(CCN1CCc2ccccc2CC1)c1ccc2c(c1)OCCO2 |  |  | inconclusive: 9.2 µM [cytotoxic, partial curve]
COc1ccc(CCNC(=O)C2CC3Cn4c(nc5ccccc54)C3N2C)cc1 (configuration not stated) | inactive: 6.16% |  | 
O=C(O)c1cccc(NC(=O)c2cn(-c3ccccc3)nc2-c2cccc(Br)c2)c1 | inconclusive: 26.8% |  | 
COc1cccc(CNC(=O)C(=O)NCC2OCCCN2S(=O)(=O)c2cc(C)ccc2C)c1 (configuration not stated) |  |  | inconclusive: 3.26 µM [activator, partial curve, poor fit]

SMILES | lipid storage change, negative = inhibition | outcome | Potency
Cc1ccccc1NC(=O)Cc1nnc(SCC(=O)NC2=NCCS2)n1C | inconclusive: 71.1% |  | 
Nc1nc(N2CCOCC2)n[nH]1 | inconclusive: 34.5% |  | 
COc1cc(C2c3c(oc4ccccc4c3=O)C(=O)N2c2nccs2)ccc1O (configuration not stated) | inconclusive: 21.9% |  | 
COc1ccc(CC(=O)NC(c2ccccc2)c2ccc(C)cc2)c(OC)c1 (configuration not stated) |  |  | inconclusive: 0.92 µM [activator, full curve]
COc1cccc(CNC(=O)c2ccncc2)c1 |  |  | inconclusive: 29.1 µM [falling, single point]
CCc1cn([C@H]2C[C@H](O)[C@@H](CO)O2)c(=O)[nH]c1=O | inconclusive: 1.11% |  | 
O=C(NC(NC(=S)Nc1cccc(C(=O)O)c1)C(Cl)(Cl)Cl)OCc1ccccc1 (configuration not stated) |  |  | inconclusive: 18.4 µM [activator, partial curve, poor fit]
c1cn(-c2ncnc3sc4c(c23)CCCC4)cn1 | inconclusive: 24.6% |  | 
Cc1cc(C(=O)CSc2nnc(N)s2)c(C)n1C1CC1 | inconclusive |  | 
CCc1ccc(CNC(=O)c2nn(C)c3c2CS(=O)(=O)c2ccccc2-3)cc1 | inconclusive: 19.6% |  | 
COc1ccc(N2C(=O)c3ccccc3NC2c2ccccc2O)cc1 (configuration not stated) | inconclusive: -27.8% |  | 
CSCCC(=O)NC1CCCN(CCc2ccccc2)C1 (configuration not stated) | inconclusive: 30.7% |  | 
Cc1cccc(NC(=S)NCCO)c1C | inconclusive: -7.76% |  | 
C#CCCCc1nc2ccccc2c(=O)n1N | inconclusive: 30% |  | 
CCOC(=O)c1cc(CC)sc1NC(=O)c1ccc([N+](=O)[O-])c(N2CCOCC2)c1 | inconclusive: 34.2% |  | 
O=C(CCCn1c(=S)[nH]c2ccccc2c1=O)NC1CCCCC1 | inconclusive: 125% |  | 
Cc1c(NC(=O)COc2cccc(Cl)c2Cl)c(=O)n(-c2ccccc2)n1C | inconclusive: 40.1% |  | 
CCN(C(=O)c1cn(C)c(=O)c2cc(OC)c(OC)cc12)c1cc(OC)ccc1OC | inconclusive: -7.71% |  | 
CC(C)c1ccccc1OCCNC(=S)NC(=O)c1cccnc1 | inconclusive: -0.775% |  | 
CC1CCCCC1NC(=O)CO/N=C/c1ccccc1OC(F)F (configuration not stated) | inconclusive: -1.01% |  | 
COC(=O)c1cn(C(=O)c2ccc(C)cc2)c2ccccc12 | inconclusive: 31.1% |  | 

SMILES | lipid storage change, negative = inhibition | outcome | Potency
C=CCCC(=O)Nc1nc(C)c(-c2csc(Nc3cc(Cl)ccc3OC)n2)s1 | inconclusive: -17.5% |  | 
COc1cc2c(cc1OC)C(=S)NC1(CCCC1)C2 | inconclusive: -17.2% |  | 
CN1C(=O)C2(OCC(COc3ccc(Cl)cc3)O2)c2ccccc21 (configuration not stated) | inconclusive: -1.08% |  | 
COC(=O)CSc1ccc(S(=O)(=O)N2CCC(C)CC2)cc1[N+](=O)[O-] | inconclusive: 12.2% |  | 
Cc1ccc(/C(N)=N/OC(=O)/C=C/c2ccccc2)cc1 | inconclusive: 425% |  | 
Cc1nn(C)c2ncc(C(=O)c3cc(F)ccc3O)cc12 | inconclusive: -0.969% |  | 
O=C(CCNC(=O)c1ccc([N+](=O)[O-])cc1)Nc1ccccc1N1CCCCC1 |  |  | inconclusive: 7.31 µM [falling, partial curve]
CCc1ccccc1OCC(=O)OCC(=O)Nc1cc(C)on1 | inconclusive: -1.8% |  | 
COC(=O)c1ccc(NC(=S)N2CCN(Cc3ccccc3OC)CC2)cc1 | inconclusive: 30.4% |  | 
O=C1C2CCCN2C(=S)N1c1cc(Cl)ccc1Cl (configuration not stated) |  |  | inconclusive: 0.082 µM [activator, full curve, poor fit]
COc1ccc(-n2nnc3c(=O)n(Cc4cccc(C)c4)cnc32)cc1 | inconclusive: -33.7% [at 0.0737 µM] |  | 
c1ccc(-c2ccccc2OCCOCCN2CCOCC2)cc1 | inconclusive: -9.8% |  | 
O=C(Cn1ccc([N+](=O)[O-])n1)Nc1nc2ccccc2s1 | inconclusive: 0.768% |  | 
CC(CNC(=O)c1ccc(-c2ccccc2)cc1)CN(C)C (configuration not stated) | inconclusive: 14.9% |  | 
CCN(c1ccccc1)S(=O)(=O)c1cc2c(cc1C)n(C)c(=O)c(=O)n2C |  |  | active: 8.2 µM
CC(=O)c1cc(CN2CCN(CCc3ccccc3)C(CCO)C2)cs1 (configuration not stated) | inconclusive: 30.1% |  | 
Cc1ccc([N+](=O)[O-])c(OCCn2cnc3ccccc32)c1 | inconclusive: 60.5% |  | 
CCOC(=O)N1CCC(NC(=O)c2ccc3c(=O)n4c(nc3c2)CCCC4)CC1 | inconclusive: 5% |  | 
CC1CCN(C(=S)NC2CC3CCC2C3)CC1 (configuration not stated) | inconclusive: -57.7% |  | 
CC(C)CN(CC(C)C)CC(O)CN(c1ccccc1)S(=O)(=O)c1ccccc1[N+](=O)[O-] (configuration not stated) | inconclusive: 20.2% |  | 
NC(=O)c1nsc(C(=O)N(Cc2ccccc2F)C(C(=O)NCC2CCCO2)c2ccc(F)cc2)c1N (configuration not stated) |  |  | inconclusive: 29.1 µM [falling, single point]

SMILES | lipid storage change, negative = inhibition | outcome | Potency
Cc1ccccc1NS(=O)(=O)c1ccc2c3c(cccc13)C(=O)N2C |  |  | inconclusive: 29.1 µM [cytotoxic, single point]
CCCCOc1ccc(C(=O)NCC(=O)N2CC(C)OC(C)C2)cc1 (configuration not stated) | inconclusive: -24.5% |  | 
O=C(Cn1c(=O)oc2cccnc21)Nc1ccc(C(F)(F)F)cc1 | inconclusive: -10.2% |  | 
O=C(CN(C(=O)c1ccco1)c1cccc(F)c1)NCc1ccc(F)cc1 | inconclusive: 20.6% |  | 
O=C(Nc1ccccc1N1CCOCC1)c1ccc(N2CCCC2=O)cc1 |  |  | inconclusive: 2.91 µM [activator, partial curve]
OCC[C@@H]1C[C@@H](O)[C@H](O)[C@@]2(Cc3ccccc3O2)O1 | inconclusive: 45% |  | 
Cc1nn(-c2nnc(NCc3ccccc3)nn2)c(C)c1Br |  |  | inconclusive: 29.1 µM [cytotoxic, single point]
CN(C)c1ccc(/C=C2\SC(=S)N(Nc3ncc(C(F)(F)F)cc3Cl)C2=O)cc1 | inconclusive: -87.9% |  | 
O=C(CSC1=NCCN1)C1COc2ccccc2O1 (configuration not stated) | inconclusive: 10% |  | 
O=C(CSc1ccc(Br)cc1)NCC(c1ccco1)N1CCCCC1 (configuration not stated) | inconclusive |  | 
Cc1ccc(NC(=O)c2ccc(S(=O)(=O)N3CCCCCC3)cc2)nc1 | inconclusive |  | 
Cc1c(NS(=O)(=O)c2cccc(C(=O)NCc3ccccc3Cl)c2)c(=O)n(-c2ccccc2)n1C | inconclusive: 43.2% [at 0.0737 µM] |  | 
Cc1[nH]n(-c2ccc(C(=O)O)cc2)c(=O)c1CCO | inconclusive: -36.8% |  | 
CN(C)S(=O)(=O)c1ccc(Cl)c(C(=O)OCC(=O)NNC(=O)c2cccs2)c1 |  |  | inconclusive: 0.82 µM [activator, single point]
COc1ccc(S(=O)(=O)N2CCOC2CNC(=O)C(=O)NCc2cccnc2)cc1C (configuration not stated) | inconclusive: 12.8% |  | 
Cc1ccc(C)c(NC(=O)CSc2nc(C)cc(C)c2C#N)c1 | inactive: 11.2% |  | 
COc1ccc2cc(S(=O)(=O)c3ccccc3)c(=O)oc2c1 | inconclusive: 14.6% |  | 
O=C(CN1C(=O)COc2ccccc21)N1CCN(c2ccccc2F)CC1 |  |  | inconclusive: 25.9 µM [activator, partial curve, poor fit]
CCCNC(=O)c1c(N)n(-c2cc(OC)cc(OC)c2)c2nc3ccccc3nc12 | inconclusive: 50.1% |  | 

No new results follow: 7 of the compounds above.
SMILES | lipid storage change, negative = inhibition | outcome | Potency
O=C(Cn1c(=O)oc2cccnc21)Nc1ccc(C(F)(F)F)cc1 | inconclusive: -10.2% |  | 
O=C(CN(C(=O)c1ccco1)c1cccc(F)c1)NCc1ccc(F)cc1 | inconclusive: 20.6% |  | 
O=C(Nc1ccccc1N1CCOCC1)c1ccc(N2CCCC2=O)cc1 |  |  | inconclusive: 2.91 µM [activator, partial curve]
OCC[C@@H]1C[C@@H](O)[C@H](O)[C@@]2(Cc3ccccc3O2)O1 | inconclusive: 45% |  | 
Cc1nn(-c2nnc(NCc3ccccc3)nn2)c(C)c1Br |  |  | inconclusive: 29.1 µM [cytotoxic, single point]
CN(C)c1ccc(/C=C2\SC(=S)N(Nc3ncc(C(F)(F)F)cc3Cl)C2=O)cc1 | inconclusive: -87.9% |  | 
O=C(CSC1=NCCN1)C1COc2ccccc2O1 (configuration not stated) | inconclusive: 10% |  | 
